Test results: patent US4443536A, “Nondiffusible photographic couplers and photographic elements and processes employing same” (Eastman Kodak Company, priority 1982, dated 1984)

Assay: Dye-forming efficiency and reactivity of coupler: slope of dye density vs developed silver without and with competing coupler citrazinic acid
Conditions: for Yc/Yo / Yo (slope dye density vs developed silver; efficiency of dye formation): developer D-2; for Yc (slope dye density vs developed silver; reactivity of coupler): developer D-2 + 1.5 g/L citrazinic acid (competing coupler); for Yo (slope dye density vs developed silver; efficiency of dye formation): absence of competing coupler
Procedure: For each of the couplers identified below, photographic elements were prepared as described above in connection with Examples 1-14. Four samples from each element were exposed as described above. One pair of the exposed elements was developed in developer D-2, described above, and the other pair was developed in this developer to which had been added 1.5 g/L of the soluble competing coupler citrazinic acid. The remaining processing for one element from each pair was stopping, bleaching, fixing and washing while for the second element from each pair the bleaching step was omitted so that the developed silver remained in the element. For those elements in which the silver remained, the amount of developed silver, in g/m^2, was determined by x-ray fluorescence analysis and plotted against exposure. For those elements from which the developed silver had been removed, dye density vs exposure curves were generated. From the plots for pairs of elements developed with the same developer composition there was plotted, for each exposure step, dye density vs developed silver. The slope of the line for the elements developed in the absence of a competing coupler (Yo in Table III, below) is a measure of the efficiency with which the coupler forms dye; the greater the slope the more efficient the coupler. The slope of the line for the elements developed in the presence of the competing coupler (Yc in Table III, below) is a measure of the reactivity of the coupler, the greater the slope, the more reactive the coupler.

Row | SMILES | Yc/Yo (coupler solvent CS-4) | Yc (slope dye density vs developed silver; reactivity of coupler) (coupler solvent CS-4) | Yo (slope dye density vs developed silver; efficiency of dye formation) (coupler solvent CS-4) | Yc/Yo (coupler solvent CS-2) | Yc (slope dye density vs developed silver; reactivity of coupler) (coupler solvent CS-2) | Yo (slope dye density vs developed silver; efficiency of dye formation) (coupler solvent CS-2)
1 | CCCCCCCCCCC(Oc1ccc(C(C)(C)c2ccc(O)cc2)cc1)C(=O)Nc1ccc(CCCc2n[nH]c3cc(C)nn23)cc1 (stereo not drawn) [CC-10, reference compound] | 0.130 | 0.21 | 1.62 |  |  | 
2 | CCC(Oc1ccc(C(C)(C)CC)cc1C(C)(C)CC)C(=O)Nc1ccc(Cl)c(NC2=NN(c3c(Cl)cc(Cl)cc3Cl)C(=O)C2)c1 (stereo not drawn) [CC-11, reference compound] |  |  |  | 0.337 | 1.50 | 4.50
3 | CCCCCCCCCCC(Oc1ccc(S(=O)(=O)c2ccc(O)cc2)cc1)C(=O)Nc1ccc(CCCc2n[nH]c3cc(C)nn23)cc1 (stereo not drawn) [Coupler M-8] | 0.312 | 1.73 | 5.55 |  |  | 
4 | CCCCCCCCCCC(Oc1ccc(S(=O)(=O)c2ccc(O)cc2)cc1)C(=O)Nc1ccc(Cl)c(NC2=NN(c3c(Cl)cc(Cl)cc3Cl)C(=O)C2)c1 (stereo not drawn) [Coupler M-28] |  |  |  | 0.738 | 4.65 | 6.30
